For 103 sequences, z-score results are on record in PubChem BioAssay AID1347423 (Functional Genomics Laboratory (NCATS/FGL), 2020).

Out of some 52,000 sequences screened, about 210 (0.4%) were called active.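 How the source made its calls: active means gene whose silencing raises cell survival under the drug, median off-target-corrected z-score across its silencing RNAs 2 or more; inactive means the rest.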 This is one part of the list.

The assay is described as follows: Resistance to Poly (ADP-Ribose) Polymerase inhibitor: Gene Identification via Genome-wide siRNA Screen. The conditions noted are these: mouse BRCA2 R2336H ES cells, olaparib, CellTiter-Glo viability; stronger effect = higher value. The gist of the method:
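Mouse BRCA2 R2336H ES cells were reverse-transfected with siRNA (20 nM final), treated at 48 h with 500 nM olaparib, and read by CellTiter-Glo after 72 h. Scores: MAD-based z per siRNA, median per gene, seed off-target correction.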
For the sequence GGCCGUGUACAACAACUUCTT against Zfp537, the z-score was inactive: 0.542.
In the case of GGAGCAGAUACCCUAGCCUTT against Mtx1, the z-score was inactive: -1.
Next, “CCCGGGAAUAAAUAAAGGCTT against 6720416L17Rik”: inactive: 0.105; GCCGUCAUUUUGCCUCGAUTT against Zswim3: inactive: -0.296; “GGAGAAGUAUGACAGAAUUTT against 5430425C04Rik”: inactive: -1.87.
For CCAGUUUUUCGAGUAUACGTT against Galnt12, the z-score is inactive: 0.605.
In the case of “GGUAGUUGAGGUUUUAUAGTT against 4933434L15Rik” it was inactive: 0.187.
As for “GGAUUCUUGGCUUUAAGACTT against 9430023P16Rik”, the z-score was inactive: -0.0156.
Turning to GGAAUACACCAUUUAACAATT against Acbd5, the z-score is inactive: -0.596.
Consider CCUCACAAAGCACAAUAUCTT against Sntg1, for which the z-score is inactive: 0.304.
Next, GCGGAACCUGAACAUUCGUTT against Zhx2: inactive: 1.46.
Regarding CCUUCUCCUGAAGAAUUGATT against BC004728, the z-score was inactive: 3.
Take “GGCCAGGUACUAUACACAUTT against B930076A02”: the z-score was inactive: 1.46.
Turning to GCACAUGGUGAUUUAUAUATT against Ostn, the z-score was inactive: 0.147.
As to GGUGCAGGCCAUGAUUUACTT against C1qtnf4, the z-score was inactive: 1.89.
On to GGCUCAAUAAAAUGAAGUGTT against Elovl2, for which the z-score is inactive: 1.28.
Regarding GGCGGUUAAUGACAAGAACTT against Sdk2, the z-score was inactive: 0.103.
In the case of GGCAGUGGCCGAAAAGACUTT against Fzd7 it was inactive: 0.137; in that of GGACUACUCGGAUUUAGCUTT against Prss15, inactive: -0.83; in that of “GGAGAAAAGGAUGUUGUUATT against 2310005P05Rik”, inactive: 2.57.
As for GGAGACUGCUUUCCUCUACTT against Wnt9a, the z-score is inactive: 0.479.
On to “CCAAGUUAGUCUGCGUAUUTT against 2610305D13Rik”, for which the z-score is inactive: -1.24.
Turning to GGUGAUUUCGGGUAACGAGTT against Ddr1, the z-score is inactive: -0.0125.
On to “GGUCAAUGUUCACCAGCCATT against 2410080H04Rik”, for which the z-score is inactive: -0.983.
Next, “CCUUCGACACCUUACAAGUTT against 2410011G03Rik”: inactive: 0.257; “GCUUAGAUAUUUCUUAUGCTT against 2610300B10Rik”: inactive: -0.193.
Turning to “GGAAAUUGAACAGCGAUUATT against C430014D17Rik”, the z-score was inactive: -1.5.
Next, “GGAUCUGUGUGCUAACAGCTT against 4930550C14Rik”: inactive: -0.925; GAGAUUUUGUUUGGGUUGUTT against Olfr1126: inactive: 1.16; “GCAUUGGGUUUAUCAGCAUTT against 6720460F02Rik”: inactive: 0.682.
With GGCCCUAUUUUGGAUAACUTT against Tgfb1i1, the z-score was inactive: 0.356.
Take GCUUCUGGUUUUCGGCUAUTT against Sfrs8: the z-score is inactive: -0.593.
CCCAAAGGUGAUGUUACCUTT against H2-M3: the z-score was inactive: -0.73.
In the case of GGAGUUUGAAAGUUCCUUCTT against Dap3 it was inactive: 0.695; in that of “GGAUGUCGGCGGUAAAUGATT against 2010110O04Rik”, inactive: -0.643.
For CCAUCUUCCUCUUUCCUAUTT against Gpr30, the z-score is inactive: 0.177.
As to GGUAUGACCUAGUGGAGGGTT against Trem1, the z-score is inactive: 1.47.
For the sequence GGUGGCCAUCAAGAAGAUATT against Mapk7, the z-score is inactive: -0.311.
In the case of GGUCUAGAUUAUGAGCAAUTT against Pcdhga7 it was inactive: 4.32; in that of GCCAUUCUGCCCUACACAATT against Rasa1, inactive: 0.239; in that of GCCAGUUUAGGUAAUAAACTT against Socs1, inactive: 0.307.
For CCAUCGUAUAAAUUACCAUTT against Plaa, the z-score is inactive: 0.0462.
With “GGACCAUGCACUUAUGACCTT against 1700013H19Rik”, the z-score is inactive: 0.994.
As to GGAGAAGUUAAAGAAGAACTT against Ddx55, the z-score was inactive: -0.145.
As to GGAAUGGUAGCCACUGUUATT against Klrg1, the z-score is inactive: 2.3.
As for GGUUGUCUCUUGAGAAUGATT against Cst10, the z-score is inactive: -0.951.
On to “GCUACAACAAGACAAAGUCTT against D1Ertd251e”, for which the z-score was inactive: 1.08.
Regarding “GCCCUCUCACAUCAGUAUUTT against 4921521K07Rik”, the z-score was inactive: 0.323.
For “GGGCCCUGUUUCAAAACUUTT against 2810446P07Rik”, the z-score was inactive: 1.89.
In the case of “GCCCAGUUUGGUUAUGUAUTT against 2310016N21Rik” it was inactive: -0.249.
As to GCAGCUUUAGGUCCAUUCGTT against Pkd2l2, the z-score was inactive: 0.744.
For the sequence GCAAGGCCUAAUGGUCAGATT against Cnga3, the z-score is inactive: -1.49.
Next, “GCUGAAAAGCAGAAGCCACTT against 2610028H24Rik”: inactive: 0.781; GGAUCUGCUGAUGCUUCCATT against Cstf1: inactive: -0.548.
Next, “GGUUUAGAAUGCAUAACAGTT against 2810039F03Rik”: inactive: -0.79; GGAAUACCAGGAAUACGAGTT against Sncb: inactive: 1.85.
Regarding “GGAUUCCUACAGGUGUGAATT against 4930503E14Rik”, the z-score was inactive: -1.1.
In the case of GGAAUGGAUACUUAUCUCUTT against Tef it was inactive: -0.232.
On to GGCAAAUAUUUCCAAGUACTT against Pgcp, for which the z-score was inactive: -0.778.
On to “CCUGUCGUUCCCUUAAAUATT against 2210409M21Rik”, for which the z-score is inactive: 0.215.
As to GGACAAUACCUACCUCGCATT against Polr3d, the z-score is inactive: -1.12.
GCUCAACUUACGUUCACUCTT against Tcfl1: the z-score was inactive: -1.36.
Next, GCUCUCGACUCUUUACACUTT against Nfatc2ip: inactive: 0.875; “CGGGCUCUUGUAGAUUUCATT against D19Ertd678e”: inactive: -1.14.
CCCAGACAUUACAUGGCCUTT against Cldn6: the z-score was inactive: 0.91.
Take GCACCUAGUAUUGAAAGUCTT against Ccna2: the z-score was inactive: -0.394.
Take GGGAUCCUUAUUUCAUACUTT against Olfr868: the z-score was inactive: 1.3.
In the case of GUGAAGAGGAGCAGGACUUTT against Klrc3, the z-score is inactive: -2.95.
As to “GGGAUAUGUGAUUAUUUACTT against 1110001J12Rik”, the z-score was inactive: 1.83.
For the sequence “GGAGAUCUAUCUGGUCCAUTT against 2210013M04Rik”, the z-score is inactive: 0.117.
“AGGGCGAUGCCAUUUCUUATT against 5930434B04Rik”: the z-score was inactive: -0.433.
With GGAGAUUGUUAUGCAAAAATT against Dnahc5, the z-score is inactive: -0.673.
CCUAAGGUUGUCUGUAAAUTT against Ndufs3: the z-score was inactive: -1.09.
For the sequence “GGAUAACAAAAACAGCAUUTT against 9930036E21Rik”, the z-score is inactive: 0.743.
In the case of GGAGGACAUUGAUGUGAUGTT against Sag it was inactive: -0.276.
Consider GGUCACUGUCAUCAACAGATT against Il6st, for which the z-score is inactive: 2.1.
Regarding CCUUGAUGUCACAUGUAUUTT against Gbif, the z-score was inactive: 0.601.
Next, CCGAACAGAGGAAGAAGGCTT against Olfr816: inactive: 0.0384; GGACUGUUUUGAGAAUUGATT against Vil1: inactive: 1.15.
In the case of CGCGAUAACGAAGAACAAUTT against Tmod3, the z-score is inactive: 0.0782.
As for GCUGGAAUAUAGGAAUGUCTT against Pex11c, the z-score is inactive: -1.46.
For “GCUAGACCAACCUGAUUGGTT against 1200016B17Rik”, the z-score is inactive: -0.109.
Regarding GGAUGAGUUCUUUAUGGAGTT against Cdh15, the z-score is inactive: 1.39.
Regarding GCACCUAAGAUCACAGCCUTT against Sh3gl1, the z-score is inactive: -0.436.
Consider CCGUCUUCUGCUGUGGAACTT against Ctrc, for which the z-score is inactive: 2.18.
Consider UGCUCUCAAGCUUCAUUCUTT against Rarb, for which the z-score is inactive: 0.602.
Take CCGGAUUGUGAUCUGUUACTT against Bckdha: the z-score was inactive: -0.178.
As for “GGAGAAAAAUCCUACCGACTT against 9830124H08Rik”, the z-score was inactive: 0.495.
Next, “CCCUCCAAGAUAGAAGCGGTT against 2610021K21Rik”: inactive: 0.124; GCAUGAAUUGUGGAAGAGATT against Csnk1a1: inactive: -0.482; GGUAUCUGUGCAAGGGCAATT against Defb5: inactive: -2.57.
Regarding “GGACAGGAUCAGAGAAAGATT against B230208J24Rik”, the z-score is inactive: -1.88.
Consider GGUCCUCAACUACAUUUUUTT against D13Wsu14e, for which the z-score was inactive: 0.304.
As for GGCCACUUGAGAACAUUCGTT against Nola3, the z-score is inactive: -1.15.
For the sequence GGUAAUAAGUCCCAUUUUCTT against Prpmp5, the z-score was inactive: 1.16.
Next, GGCAGCACCUAAACAAAAGTT against Rpl24: inactive: -2.89; CAAUAACAGCGAAACAUCCTT against Scn4b: inactive: 2.18.
Regarding GCUAUUGCCUCAUCUUAUGTT against Olfr654, the z-score was inactive: 0.548.
For GGACAUGUGUCCAGUUUUCTT against Sspn, the z-score is inactive: -0.313.
As for GCUUCAAGUGAGUCUCACUTT against Nup35, the z-score was inactive: 0.035.
As to “GAAAUGUACCUGCCUUUUCTT against D830030K20Rik”, the z-score was inactive: -0.0579.
In the case of CCGGAAAACAAAAUUGCUATT against Obp1a, the z-score is inactive: -0.697.
Consider GGAGCAUCAUUUUAACACUTT against Tubd1, for which the z-score is inactive: 1.12.
